Assay results from PubChem BioAssay AID1347076 (National Center for Advancing Translational Sciences (NCATS), 2019).
Hit rate of the full screen: of about 400,000 compounds, about 13,000 (3.2%) were called active. Inconclusive results, whose numbers are uncertain, are shown with a selection of clear calls. The call rests on the fitted dose curve; in most records, active means well fitted cell-killing curve with a large enough effect; inconclusive means small, poorly fitted or top-dose-only effect, or effect the other way; inactive means flat fitted curve, though single readings scatter. Potencies beside an inconclusive call are fits to weak or partial responses and may not hold up.

Test: qHTS assay for MDR1-selective chemotherapeutics: Primary screen using the drug-selected MDR subline cells KB-V1; further: nearly all actives have a fitted effect of over 60% in size
Conditions: KB-V1 MDR cells viability, CellTiter-Glo, 72 h; activity change, negative = cytotoxicity: at 46.1 µM (top of the series)
Procedure, shortened: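 Drug-selected KB-V1 cells, grown in DMEM lacking phenol red with 10% FBS, receive compound titrations; after three days at 37 degrees C, surviving cell ATP is quantified by CellTiter-Glo luminescence and responses normalized and curve-fitted.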
On the % scale 0 is the no-effect control and ±100 the full control effect; potency means the concentration at half of the fitted maximal effect.

Structure (SMILES)	Potency	activity change, negative = cytotoxicity
CCC(C)[C@H](NC(=O)N1CC(=O)Nc2ccccc21)C(=O)N[C@@H](Cc1c[nH]c2ccccc12)C(=O)O (stereo partly drawn)	inconclusive: 18.4 µM [rising, single point]	–
O=C(CCc1nc2ccccc2c(=O)[nH]1)NCCN1C(=O)S/C(=C\c2ccccc2Cl)C1=O	inconclusive: 20.6 µM [cytotoxic, single point]	–
Cc1cc2ccccn2c1C(=O)c1cccc(S(=O)(=O)N2CCOCC2)c1	inconclusive: 14.6 µM [cytotoxic, single point]	–
Cc1ccc(-c2ccc(=O)n(Cc3ccc(F)cc3)n2)cc1	inconclusive: 18.4 µM [cytotoxic, single point]	–
CCc1ccc2oc(-c3ccc(C)c(NC(=O)COc4ccccc4Cl)c3)nc2c1	–	inactive: 14.9%
COCCCN(C(=O)CSCc1c(C)noc1C)c1c(N)n(Cc2ccccc2)c(=O)[nH]c1=O	inconclusive: 29.1 µM [rising, single point]	–
O=C(Nc1cccc([N+](=O)[O-])c1)C(=O)N1CCCCC1	–	inactive: -5.06%
COc1cc(NC(=O)Nc2cccc(Cl)c2)c(C(=O)O)cc1OC	inconclusive: 29.1 µM [rising, single point]	–
Cc1cccc(-n2nnnc2SCn2nnc3ccccc3c2=O)c1	active: 13 µM	–
CCOc1ccc(CCNC(=O)CCCc2cc(-c3ccc(OCC)cc3)on2)cc1	–	inactive: 8.91%
CCOC(=O)C1=CNS(=O)(=O)NC1c1ccc(C(=O)OC)cc1 (stereo not drawn)	–	inactive: 5.02%
Cn1c(N)c(C(=O)COC(=O)c2cc(C3CC3)nc3ccccc23)c(=O)n(C)c1=O	inconclusive: 18.4 µM [cytotoxic, single point]	–
O=C(CCc1nc2ccccc2c(=O)[nH]1)N1CCN(S(=O)(=O)c2ccc(Cl)c(C(F)(F)F)c2)CC1	inconclusive: 9.2 µM [cytotoxic, partial curve, poor fit]	–
Oc1ccc(-c2csc(-c3cccnc3)n2)c(O)c1	inconclusive: 10.3 µM [cytotoxic, partial curve, poor fit]	–
Cc1ccc(CN2CCSc3ccc(C(=O)Nc4ccc(Cl)cc4)cc32)cc1	–	inactive: 5.18%
CCn1cc(C(=O)N2CCN(c3cc(Cl)ccc3C)CC2)c2cc(OC)c(OC)cc2c1=O	–	inactive: 1.94%
CC(NC(=O)c1cccc(S(=O)(=O)N2CCN(C)CC2)c1)C1CC2CCC1C2 (stereo not drawn)	inconclusive: 10.3 µM [cytotoxic, partial curve]	–
CCOC(=O)c1c(NC(=O)COC(=O)c2ccc(S(=O)(=O)C(F)F)cc2)sc(C(=O)N(C)C)c1C	–	inactive: -11.7%
O=C(Nc1cccc2c1CCCC2)c1cc([N+](=O)[O-])cc([N+](=O)[O-])c1	inconclusive: 29.1 µM [cytotoxic, single point]	–
Cc1ccccc1-c1nnc(CN2CCN(c3cc(Cl)ccc3C)CC2)o1	–	inconclusive: -30.8% [cytotoxic]
CCN(CC(=O)NC(C)(C)C)C(=O)COc1c(Cl)cc(Cl)c2ccc(C)nc12	inconclusive: 2.91 µM [cytotoxic, full curve]	–
CC1CCCN(CCOCCOc2ccc(Cl)cc2Br)C1 (stereo not drawn)	active: 16.4 µM	–
CCn1cnc2c(cnn2-c2ccccc2)c1=O	active: 10.3 µM	–

Structure (SMILES)	Potency	activity change, negative = cytotoxicity
Cc1nn(C)c(C)c1CNC(=O)c1cc2n(n1)C(C(F)(F)F)CC(c1cccs1)N2 (stereo not drawn)	inconclusive: 18.4 µM [cytotoxic, single point]	–
Cc1nc(NNC(=O)c2ccc([N+](=O)[O-])cc2)cc(-c2ccccc2)n1	inconclusive: 18.4 µM [cytotoxic, single point]	–
CCOCCCNC(=O)C1CCN(S(=O)(=O)N2CC(C)CC(C)C2)CC1 (stereo not drawn)	inconclusive: 16.4 µM [cytotoxic, partial curve]	–
Cc1cc(C)c2c(=O)[nH]n(C3CC(C)N(C)CC3C)c2n1 (stereo not drawn)	inconclusive: 29.1 µM [rising, single point]	–
CC1CCC(NC(=O)Nc2cccs2)CC1 (stereo not drawn)	–	inactive: 5.13%
CC1CCN(C(=O)Nc2ccc3nsnc3c2)CC1	–	inactive: -1.78%
COCC(C)OC(=O)c1c(N)n(CC(C)C)c2nc3ccccc3nc12 (stereo not drawn)	–	inactive: -10.8%
CCOC(=O)c1c(C)[nH]c(C(=O)N2CCN(C(=O)OCC)CC2)c1C	inconclusive: 7.31 µM [cytotoxic, partial curve, poor fit]	–
COc1ccc(C2CC(=O)c3cnc(NC(=O)c4cc(OC)cc(OC)c4)nc3C2)cc1 (stereo not drawn)	inconclusive: 14.6 µM [cytotoxic, partial curve]	–
COc1ccc(Nc2nc(NC(C)C)nc3ccsc23)cc1OC	inconclusive: 25.9 µM [cytotoxic, single point]	–
Cc1cc(NC(=O)CS(=O)(=O)c2cn(Cc3cccc(Br)c3)c3ccccc23)no1	–	inactive: 0%
CCOC(=O)C1=C(C)NC(C)=C(C(=O)OCC)C1C(=O)OCC(=O)NCc1ccc(F)cc1	inconclusive: 16.4 µM [cytotoxic, single point]	–
CCOC(=O)c1c(N)nn(C(=O)C(C)C)c1-c1ccccc1	–	inconclusive: -24.9%
O=C(COC(=O)C1=Cc2ccccc2OC1)NCc1ccc(F)cc1	inconclusive: 10.3 µM [rising, partial curve]	–
COc1ccc(CNC(=O)CSCc2cnn(-c3ccccc3)c2-n2cccc2)cc1	inconclusive: 16.4 µM [cytotoxic, partial curve]	–
COc1ccc(S(=O)(=O)NCc2cccnc2)cc1NC(=O)c1ccc(Cl)cc1	inconclusive: 3.66 µM [cytotoxic, partial curve, poor fit]	–
COc1ccc(S(=O)(=O)N(CC(=O)N2CCN(c3ccccc3)CC2)c2ccccc2)cc1	inconclusive: 11.2 µM [cytotoxic, partial curve]	–
Nc1cccc(-c2nc3cc(S(=O)(=O)c4ccc5oc(-c6cccc(N)c6)nc5c4)ccc3o2)c1	inconclusive: 8.2 µM [cytotoxic, partial curve, poor fit]	–
CC(=O)Nc1sc(C)c(C)c1C(=O)OCC(=O)Nc1cc(S(C)(=O)=O)ccc1Cl	–	inactive: -13%
CCCOc1ccc(C(F)(F)F)cc1NC(=O)CN1C(=O)C(=O)N(CC)C1=O	inconclusive: 14.6 µM [cytotoxic, partial curve]	–
COc1ccc2cc(C(=O)/C=C/c3cc(OC)c(O)c(OC)c3)ccc2c1	–	inactive: -29.9%
CN(CCc1ccccc1)C(C(=O)c1ccc2c(c1)OCO2)c1nnnn1-c1ccccc1NC(=O)OC(C)(C)C (stereo not drawn)	inconclusive: 8.2 µM [cytotoxic, partial curve]	–
Cc1occc1-c1nnc(SCC(=O)N(C)c2ccccc2)o1	inconclusive: 13 µM [cytotoxic, partial curve]	–

Five entries from above in a different format:
Structure (SMILES),Potency,"activity change, negative = cytotoxicity"
Cc1nc(NNC(=O)c2ccc([N+](=O)[O-])cc2)cc(-c2ccccc2)n1,"inconclusive: 18.4 µM [cytotoxic, single point]",–
CC1CCC(NC(=O)Nc2cccs2)CC1 (stereo not drawn),–,inactive: 5.13%
COc1ccc(Nc2nc(NC(C)C)nc3ccsc23)cc1OC,"inconclusive: 25.9 µM [cytotoxic, single point]",–
COc1ccc(S(=O)(=O)NCc2cccnc2)cc1NC(=O)c1ccc(Cl)cc1,"inconclusive: 3.66 µM [cytotoxic, partial curve, poor fit]",–
Nc1cccc(-c2nc3cc(S(=O)(=O)c4ccc5oc(-c6cccc(N)c6)nc5c4)ccc3o2)c1,"inconclusive: 8.2 µM [cytotoxic, partial curve, poor fit]",–

Continuation.

Structure (SMILES)	Potency	activity change, negative = cytotoxicity
O=C(CCC1CC(=O)Nc2ccccc21)NCc1ccccc1 (stereo not drawn)	inconclusive: 10 µM [rising, partial curve, poor fit]	–
Cc1cccc(OCC(=O)N/N=C\c2cc3c(cc2[N+](=O)[O-])OCO3)c1C	–	inactive: 0%
O=C(COC(=O)c1cc(S(=O)(=O)N2CCCC2)ccc1O)Nc1ccc(F)cc1F	–	inactive: -6.35%
CN(Cc1cccc(F)c1)C(=O)c1ccccc1Sc1ccccc1C#N	inconclusive: 8.2 µM [cytotoxic, partial curve]	–
O=c1c2cn[nH]c2nc(SCc2ccc3c(c2)OCCO3)n1-c1ccccc1	inconclusive: 29.1 µM [cytotoxic, single point]	–
Cc1cc(C)n(CC(=O)Nc2ccc(F)c(F)c2)c(=O)c1C#N	–	inactive: 15.2%
O=C(Cn1c(=O)n(Cc2ccco2)c(=O)c2ccc(C(=O)NC3CCCC3)cc21)Nc1ccc(F)cc1	–	inactive: 0%
COc1ccc(-n2nc(C(=O)NCCc3ccc(Cl)cc3)c3c4ccccc4n(C)c3c2=O)cc1Cl	inconclusive: 25.9 µM [rising, single point]	–
Cc1cc(C=CC#N)cc(C)c1Nc1nc(Nc2ccc3scnc3c2)c2[nH]cnc2n1	inconclusive: 32.6 µM [cytotoxic, single point]	–
Cc1ccc(C)c(C(=O)CSc2nc3ccccc3c(=O)[nH]2)c1	inconclusive: 7.31 µM [cytotoxic, partial curve]	–
O=C(NCCCn1ccnc1)Nc1cccc2ccccc12	–	inactive: 0%
COc1ccc(CCNC(=O)c2c(O)nc3cc(C)ccn3c2=O)cc1OC	inconclusive: 1.84 µM [cytotoxic, full curve, poor fit]	–
Cc1cc(-c2ccc(C)c(S(=O)(=O)N3CCCC(C)C3)c2)on1 (stereo not drawn)	–	inactive: 10.5%
CC1CCCN(Cc2csc(N)n2)C1 (stereo not drawn)	–	inconclusive: 52.9%
COc1ccc(OC)c(Nc2ccc(Nc3cc(OC)ccc3OC)nn2)c1	inconclusive: 5.8 µM [cytotoxic, partial curve, poor fit]	–
COc1ccc(C(=O)Nc2ccccc2C(=O)NC(C(=O)NCc2ccco2)C(C)C)cc1 (stereo not drawn)	inconclusive: 9.2 µM [cytotoxic, partial curve]	–
COc1ccc(/C=C/c2nc3ccccc3n2C)cc1	active: 4.11 µM	–
N#C/C(=C\c1ccc(-c2ccccc2C(=O)O)o1)c1nc2ccccc2[nH]1	inconclusive: 18.4 µM [cytotoxic, single point]	–
COc1ccc(C(=O)N2CCc3cc(OC)c(OC)cc3C2c2cccc([N+](=O)[O-])c2)cc1OC (stereo not drawn)	–	inactive: -21.3%
Cc1c(NC(=O)/C(C#N)=C/c2ccc(-c3ccc(Cl)cc3)o2)c(=O)n(-c2ccccc2)n1C	inconclusive: 10.3 µM [cytotoxic, partial curve]	–
CCc1ccc(CNC(=O)c2ccc(CSc3nc4ccncc4n3Cc3ccc(OC)cc3)cc2)cc1	–	inactive: -0.233%
COC(=O)c1ccc(NCCc2csc(-c3ccc(C)cc3)n2)c([N+](=O)[O-])c1	–	inactive: -1.04%
